Measured values reported in PMC11201974, “Structural Insights into the Rrp4 Subunit from the Crystal Structure of the Thermoplasma acidophilum Exosome” (Biomolecules, 2024).
No constants are given. Whether binding was seen depends on the method and setting. Some entries that bind do so weakly or less than the wild type.

T1: Thermoplasma acidophilum exosome subunit Rrp42, truncated core domain, residues 20-240 (TaciRrp42) (Thermoplasma acidophilum) (UniProt Q9HIP1)
T1 sequence (chain, RED-tris-NTA fluorescent dye on the His tag (in MST)): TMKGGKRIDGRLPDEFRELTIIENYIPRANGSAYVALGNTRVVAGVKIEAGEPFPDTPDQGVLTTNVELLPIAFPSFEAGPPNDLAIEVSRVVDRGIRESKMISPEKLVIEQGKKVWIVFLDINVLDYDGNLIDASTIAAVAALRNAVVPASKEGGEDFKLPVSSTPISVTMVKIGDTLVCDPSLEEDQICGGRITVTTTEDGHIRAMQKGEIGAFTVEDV

T2: TaciRrp41:42 complex (Thermoplasma acidophilum exosome core, Rrp41 with truncated Rrp42) (Thermoplasma acidophilum) (UniProt Q9HIP2+Q9HIP1)
T2 sequence 1: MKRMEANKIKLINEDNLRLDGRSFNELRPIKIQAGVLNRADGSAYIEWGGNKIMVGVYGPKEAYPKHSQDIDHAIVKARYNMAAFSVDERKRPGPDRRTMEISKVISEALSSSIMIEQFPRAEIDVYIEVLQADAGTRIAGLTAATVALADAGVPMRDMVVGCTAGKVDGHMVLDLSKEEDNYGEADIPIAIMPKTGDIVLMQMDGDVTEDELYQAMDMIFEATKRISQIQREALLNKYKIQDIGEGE
T2 sequence 2: T1 sequence (chain, RED-tris-NTA fluorescent dye on the His tag (in MST))

B1: Thermoplasma acidophilum exosome subunit Rrp41 (TaciRrp41) (protein, UniProt Q9HIP2 1-248)
chain: T2 sequence 1
B2: Thermoplasma acidophilum exosome subunit Rrp4 (TaciRrp4) (natural protein, UniProt Q9HIP3 1-236, looked up)
chain: MYQLGDVKKIVLPGDPIEVQGKMRNGVYRGQDNRYYSEYFGTLQVNDQFVDVVPFSGQYIPRKGDKVIGKVIEVGPSTWTVDINSPYFAMLHMNDTPWRMSSGDLKRYLNAGDYIYAKIMSVNEIKESWLTLKEPGLKKLEGGHMVLIHASRVPRVIGKGGGMVNMVKELTATRIIIGQNGLIWIDGPIEGVTMAIAAIEMIEREAHTEGLTARVESFLKELKGEKDGSQQNKADQ
notes: Exosome complex component Rrp4 of Thermoplasma acidophilum (N-terminal domain, S1 domain, KH domain); also called TaciRrp4-capping protein; source: E. coli Rosetta, from pET22b; purified (Ni-NTA, Superdex 200)

How the values were obtained:
[1] = target: T1, Thermoplasma acidophilum exosome subunit Rrp42, truncated core domain, residues 20-240 (TaciRrp42) (Thermoplasma acidophilum); assay: crystal structure; TaciRrp41:42 binary complex with phosphate, 2.3 Å, space group P2(1)3; hanging drop, 0.08 M sodium acetate trihydrate, 1.6 M ammonium sulfate, 20% glycerol, pH 4.9, 22 °C; both purified
[2] = target: T1, Thermoplasma acidophilum exosome subunit Rrp42, truncated core domain, residues 20-240 (TaciRrp42) (Thermoplasma acidophilum); assay: crystal structure; TaciRrp4:41:42 ternary complex, 3.5 Å, space group P3(2)21; TaciRrp41:42 and TaciRrp4 incubated 1 h at room temperature and separated by gel filtration; hanging drop, 0.08 M sodium acetate trihydrate, 1.6 M ammonium sulfate, 20% glycerol, pH 4.9, 22 °C; both purified
[3] = target: T2, TaciRrp41:42 complex (Thermoplasma acidophilum exosome core, Rrp41 with truncated Rrp42) (Thermoplasma acidophilum); assay: as above

| Binder | binding [1] | binding [2] | binding [3] |
| --- | --- | --- | --- |
| B1 | binds | binds | – |
| B2 | – | binds | binds |
